This is an account of results in patent US20240140931A1, “TRICYCLIC COMPOUNDS AND USES THEREOF” (HUTCHMED LIMITED, priority 2021, published 2024).

Chains of the proteins cited; added tags and fusions are not shown.
UniProt Q06124, whole entry: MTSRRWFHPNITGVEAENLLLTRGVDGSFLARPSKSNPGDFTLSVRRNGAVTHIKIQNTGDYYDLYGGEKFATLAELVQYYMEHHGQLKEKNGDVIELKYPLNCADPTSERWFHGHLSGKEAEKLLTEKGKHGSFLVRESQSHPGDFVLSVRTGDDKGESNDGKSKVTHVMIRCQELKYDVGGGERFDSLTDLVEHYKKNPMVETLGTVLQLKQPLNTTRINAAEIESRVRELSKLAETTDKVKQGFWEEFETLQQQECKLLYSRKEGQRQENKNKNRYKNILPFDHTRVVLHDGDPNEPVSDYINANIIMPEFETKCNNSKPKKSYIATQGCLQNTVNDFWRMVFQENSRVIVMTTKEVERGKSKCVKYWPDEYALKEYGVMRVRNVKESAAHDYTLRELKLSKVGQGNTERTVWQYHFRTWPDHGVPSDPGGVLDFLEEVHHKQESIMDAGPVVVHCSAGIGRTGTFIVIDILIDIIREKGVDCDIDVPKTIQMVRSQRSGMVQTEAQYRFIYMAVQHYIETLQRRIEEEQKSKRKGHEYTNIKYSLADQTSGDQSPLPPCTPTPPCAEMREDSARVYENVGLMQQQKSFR

What is called IC50 is the concentration that inhibits the measured activity by half.

The match of structure and compound is tentative.

Assay [1] relates to pERK1/2 (Thr202/Tyr204) in Miapaca2 cells. Nature of the assay: Assay of intracellular pERK1/2 (Thr202/Tyr204) phosphorylation. As to conditions: pERK1/2 (Thr202/Tyr204) HTRF, 2 hours. How it is done: Example 3 Assay of Intracellular pERK1/2 (Thr202/Tyr204) Phosphorylation
1. Reagents and Materials • pERK1/2 (Thr202/Tyr204) HTRF kit: Cisbio, Cat #64ERKPEH; • Cell line: Miapaca2, ATCC, CRL-1420; • OptiPlate™-384-well plate: PerkinElmer, Cat #6007299; • 96-well plate: Corning, Cat #353072; • Instrument: EnVision2104, PerkinElmer.
2. Preparation of Reaction Solutions • The test compound was dissolved in DMSO and diluted with DMSO to 600.0 μM, and the compound was further 3-fold diluted with DMSO to: 600.0, 200.0, 66.7, 22.2, 7.4, 2.5, 0.82 and 0.27 μM. […]
wherein • the fluorescence ratio of compound well refers to the fluorescence ratio of the well containing the test compounds; • the fluorescence ratio of negative control well refers to the fluorescence ratio of the background containing the cell lysis buffer and no Miapaca2 cells; • the fluorescence ratio of positive control well refers to the fluorescence ratio of the well containing 0.5% DMSO and Miapaca2 cells.
(§1) IC50 values were calculated following formula 205: y=A+((B−A)/(1+((C/X)^D))), by using the XL-Fit 5.0 software.
On the technique in general: Time-resolved FRET reads energy transfer from a long-lived donor to a nearby acceptor.

Assay [2] concerns the target Human full-length SHP2 recombinant protein (Homo sapiens (Human), UniProt Q06124). Kind of assay: Assay of full-length SHP2 phosphatase activity. Conditions: DiFMUP substrate, with activating peptide. On the procedure:
Example 2 Assay of Full-Length SHP2 Phosphatase Activity
1. Reagents and Materials • Human full-length SHP2 recombinant protein: BPS Bioscience, Cat #79018; • SHP2 substrate DiFMUP (1 mM): BPS Bioscience, Cat #79769; • SHP2 activating peptide (100 μM): BPS Bioscience, Cat #79319-2; • DTT: Merck, Cat #DTT-RO; • 384-well plate: Corning, Cat #3575; • 96-well plate: Thermo Fisher Scientific, Cat #249952; • Instrument: EnVision 2104, PerkinElmer.
2. Preparation of Reaction Solutions
The test compound was dissolved in DMSO and diluted with DMSO to 100.0 μM, and the compound was further 3-fold diluted with DMSO to: 100.00, 33.33, 11.11, 3.70, 1.23, 0.41, 0.14 and 0.05 μM. […]
wherein • the RFU of compound well refers to the fluorescence reading at 460 nm of the well containing the test compounds; • the RFU of negative control well refers to the fluorescence reading at 460 nm of the background well containing 1% DMSO and the enzymatic reaction buffer; • the RFU of positive control well refers to the fluorescence reading at 460 nm of the well containing 1% DMSO and the mixed solution of SHP2 enzyme/activating peptide.
as §1

Turning to `C#Cc1ccc2c(c1)[C@@H](N)C1(CCN(c3cc(=O)n(-c4ccc(OC)c(F)c4Cl)c(C)n3)CC1)C2`, the IC50 in assay [1] is 223 nM; in assay [2], 23 nM.
